PubChem BioAssay AID504467 (National Center for Advancing Translational Sciences (NCATS), 2011)
Screen size: about 330,000 compounds; about 7,700 (2.3%) were called active. Inconclusive means that the source gave no clear call. Such entries were picked first, then a sample of the others. Calls come from the whole dose curve; as a rule, active = well fitted inhibition curve with a large enough effect; inconclusive = small, poorly fitted or top-dose-only effect, or effect the other way; inactive = flat fitted curve, though single readings scatter. Potencies of inconclusive entries are doubtful fits and often do not repeat.

Test: qHTS screen for small molecules that inhibit ELG1-dependent DNA repair in human embryonic kidney (HEK293T) cells expressing luciferase-tagged ELG1; note: nearly all actives have a fitted effect of over 55% in size
Conditions: HEK293T ELG1-luciferase reporter, luminescence, 16 h, DNA damage induced by 5-fluorouridine; series mostly up to 46.1 µM
In short: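 5-Fluorouridine DNA damage + compound/DMSO, 2,000 cells/well, 16 h, 37 °C/5% CO2. ONE-Glo, 30 min RT, luminescence. Readout = decrease in reporter signal.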
Potency is the fitted concentration of half-maximal effect.

**Q.** Which Potency does the source give for CSc1scc2c1-c1nc(SCC(=O)C(C)(C)C)ncc1CC2 here?
**A.** The Potency was inconclusive: 18.3 µM [inhibitor, single point].

**Q.** For Cc1ccc(-c2nnn(CC(=O)N(Cc3cccs3)C(C(=O)NC3CCCCC3)c3ccco3)n2)o1 (stereo unspecified), which Potency is on record?
**A.** Its Potency is inconclusive: 18.4 µM [activator, single point].

**Q.** Which Potency does the source give for CCOc1ccc(S(=O)(=O)N2CCN(C(=O)c3ccccc3Cc3ccccc3)CC2)cc1 here?
**A.** Its Potency is “inactive”.

**Q.** Which Potency does the source give for NC(=O)c1ccc(NC(=O)c2ccc3c(c2)OCO3)cc1 here?
**A.** The Potency was inconclusive: 9.2 µM [activator, partial curve].

**Q.** Which Potency does the source give for c1ccc2sc(C3CCN(Cc4nnnn4Cc4ccc5c(c4)OCO5)CC3)nc2c1 here?
**A.** The Potency was inconclusive: 29.1 µM [inhibitor, single point].

**Q.** For Cc1cccc(C(=O)O/N=C(\N)c2ccc(Cl)cc2)c1, which Potency is on record?
**A.** Its Potency is inconclusive: 23.1 µM [activator, partial curve].

**Q.** Which Potency does the source give for O=c1[nH]nnc2sc3c(c12)CCCC3 here?
**A.** Its Potency is active: 13 µM.

**Q.** Which Potency does the source give for O=S(=O)(c1ccccc1)c1nc(-c2ccco2)oc1NCc1ccccc1 here?
**A.** The Potency was inconclusive: 25.9 µM [inhibitor, single point].

**Q.** With Cc1cccc(-n2cc(-c3ccccc3)c3c(N4CCOCC4)ncnc32)c1 as the molecule, how does the Potency read?
**A.** Its Potency is active: 18.3 µM.

**Q.** For Cc1oc(-c2ccccc2F)nc1CS(=O)(=O)CC(=O)NCCN1CCCC1, which Potency is on record?
**A.** The Potency was “inactive”.

**Q.** With COc1ccccc1/C=C/C=N/NC(=O)c1cccs1 as the molecule, how does the Potency read?
**A.** Its Potency is inconclusive: 4.61 µM [activator, partial curve].

**Q.** Which Potency does the source give for CC(C)NC(=O)CCc1nc2cccnc2n1-c1ccccc1 here?
**A.** The Potency was “inactive”.

**Q.** For Cc1ccc(/C=C/C(=O)OC(C)C(=O)NC2CCCCC2C)o1 (stereo unspecified), which Potency is on record?
**A.** The Potency was “inactive”.

**Q.** Which Potency does the source give for Cc1ccc(C)c(N2CCN(c3ncnc4c3cnn4-c3ccccc3)CC2)c1 here?
**A.** The Potency was inconclusive: 13 µM [inhibitor, partial curve].

**Q.** Which Potency does the source give for COc1ccc(NC(=O)CCCSc2nc(-c3ccco3)cc(C(F)(F)F)n2)cc1OC here?
**A.** Its Potency is active: 20.6 µM.

**Q.** Which Potency does the source give for CCNC(=S)Nc1cccc(F)c1C here?
**A.** The Potency was “inactive”.

**Q.** Which Potency does the source give for COc1ccc(CC(=O)OCC(=O)NCc2ccc(F)cc2)cc1 here?
**A.** Its Potency is “inactive”.

**Q.** With Cn1c(=O)c2c(nc(SCCNS(=O)(=O)c3ccccc3)n2C)n(C)c1=O as the molecule, how does the Potency read?
**A.** Its Potency is inconclusive: 8.2 µM [inhibitor, partial curve, poor fit].

**Q.** For COC(=O)c1ccccc1NC(=O)c1noc2c1CCCC2, which Potency is on record?
**A.** The Potency was inconclusive: 8.2 µM [activator, partial curve, poor fit].

**Q.** For COc1ccc(-c2c(C(=O)O)nc3ccccc3c2C(=O)O)cc1, which Potency is on record?
**A.** The Potency was “inactive”.

**Q.** Which Potency does the source give for CCn1c(C)nc2cc(C(=O)OC)ccc21 here?
**A.** The Potency was inconclusive: 20.6 µM [activator, single point].
